{
  "source": "PubChem BioAssay AID504834",
  "about": "(National Center for Advancing Translational Sciences (NCATS), 2011)",
  "note": "The whole screen tested about 320,000 compounds, of which about 22,000 (6.9%) were called active. This list was built around the results that the source calls inconclusive (neither active nor inactive); the mix of calls is not that of the screen. The call rests on the fitted dose curve; in most records, active means well fitted inhibition curve with a large enough effect; inconclusive means small, poorly fitted or top-dose-only effect, or another doubt; inactive means no such curve, though single readings can be large or run the other way. Potencies of inconclusive entries are doubtful fits and often do not repeat.",
  "data": [
    {"assay": "Primary qHTS for delayed death inhibitors of the malarial parasite plastid, 96 hour incubation; further: potency means the concentration at half of the fitted maximal effect; on activity change, negative = inhibition: on the % scale 0 is the no-effect control and ±100 the full control effect", "conditions": "P. falciparum luciferase reporter growth; series mostly up to 28.7 µM", "procedure,_shortened": "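Delayed-death screen, second-generation endpoint: infected erythrocytes, 2% hematocrit, 0.05% parasitemia final; 96 hours at 37 C, 5% CO2; luciferase detection reagent; luminescence decrease equals reduced growth.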", "values": [
      {"compound": "CCCC(C)C(=O)Nc1ccc(S(N)(=O)=O)cc1", "note": "(stereo not drawn)", "Potency": "inactive"},
      {"compound": "COc1ccc(NC(=O)CSc2nnc(-c3ccccc3)n2Cc2ccco2)c(OC)c1", "Potency": "inconclusive: 8.28 µM [inhibitor, partial curve, poor fit]"},
      {"compound": "C/C(=N\\NC(=O)c1cccnc1)c1ccc(-c2ccccc2)cc1", "Potency": "inactive"},
      {"compound": "CCCCCC(=O)NCc1c(C(F)(F)F)nn(C)c1N1CCOCC1", "Potency": "inconclusive: 13.1 µM [inhibitor, single point]"},
      {"compound": "COc1ccc(NC(=O)n2ncc3c(C)cccc32)cc1", "Potency": "inactive"},
      {"compound": "COc1ccc2ccccc2c1/C=N\\NC(=O)c1ccc(C)s1", "Potency": "inactive"},
      {"compound": "CN(C)S(=O)(=O)c1ccc(N2CCCC2)c(C(=O)NC2CCCCC2)c1", "Potency": "inconclusive: 16.5 µM [inhibitor, single point]"},
      {"compound": "CNC(=S)N/N=C(\\C)c1ccc(Cl)c(Cl)c1", "Potency": "inconclusive: 13.1 µM [inhibitor, single point]"},
      {"compound": "CCOc1ccc(NS(=O)(=O)c2ccc(NC(=O)c3cccnc3)c(OC)c2)cc1", "Potency": "inconclusive: 9.28 µM [inhibitor, single point]"},
      {"compound": "CCOC(=O)c1c(NC(=O)C2COc3ccccc3O2)sc(C)c1C", "note": "(stereo not drawn)", "Potency": "inactive"},
      {"compound": "Cc1cccc(NC(=O)CSCC(=O)NCc2cccc(C(F)(F)F)c2)c1", "Potency": "inconclusive: 16.5 µM [inhibitor, partial curve, poor fit]"},
      {"compound": "CO[C@@H](COC(N)=O)C1=C(N2CC2)C(=O)C(C)=C(N2CC2)C1=O", "Potency": "active: 0.536 µM"},
      {"compound": "Cc1ccc(SCCC(=O)NCCSCc2ccccc2C)cc1", "Potency": "inconclusive: 11.7 µM [inhibitor, single point]"},
      {"compound": "Cc1ccc(NC(=O)Cn2c(/C=C/c3ccccc3)nc3ccccc32)cc1C", "Potency": "inactive"},
      {"compound": "Cc1onc(-c2ccccc2Cl)c1C(=O)NC(=S)NCc1cccnc1", "Potency": "inconclusive: 2.33 µM [inhibitor, full curve, poor fit]"},
      {"compound": "C=CCn1c(O)c(C=NCCN2CCOCC2)c(=O)[nH]c1=S", "Potency": "inconclusive: 3.29 µM [inhibitor, single point]"},
      {"compound": "O=C(Nc1ccccc1)c1ccc(N2CCN(c3ccccn3)CC2)c(S(=O)(=O)N2CCOCC2)c1", "Potency": "active: 3.7 µM"},
      {"compound": "Cc1ccc(-c2nn3c(C)nnc3s2)cc1NC(=O)c1ccc(-c2cccc(Cl)c2)o1", "Potency": "inconclusive: 11.7 µM [inhibitor, partial curve, poor fit]"},
      {"compound": "Cc1cc(C)c(NC(=S)N(CCCN2CCN(C)CC2)Cc2cccs2)c(C)c1", "Potency": "active: 10.4 µM"},
      {"compound": "O=C(Oc1ccccc1/C=C\\C(=O)c1cc2ccccc2o1)c1ccccc1", "Potency": "inactive"},
      {"compound": "COC(=O)c1ccc(N=Nc2c(C)[nH]n(-c3ccccc3)c2=O)cc1", "Potency": "inactive"},
      {"compound": "Cc1ccccc1-c1nnnn1C1CCS(=O)(=O)C1", "note": "(stereo not drawn)", "Potency": "inactive"},
      {"compound": "CCCCCN=Cc1c(C)[nH]n(-c2nc3ccccc3s2)c1=O", "Potency": "inactive"},
      {"compound": "Cc1sc2ncnc(OCc3nnc(-c4cccs4)o3)c2c1C", "Potency": "inactive"},
      {"compound": "COc1cc(-c2nnc(SCC(=O)c3cc(C)n(CC4CCCO4)c3C)o2)cc(OC)c1OC", "note": "(stereo not drawn)", "activity change, negative = inhibition": "inactive: -19.1% [at 5.75 µM]"},
      {"compound": "CCOc1cc(C2NC(=O)NC(C)=C2C(=O)OCc2ccccc2)ccc1O", "note": "(stereo not drawn)", "Potency": "inactive"},
      {"compound": "CN(C(=O)COC(=O)Cn1cnc2c1c(=O)n(C)c(=O)n2C)C1(C#N)CCCCC1", "Potency": "inactive"},
      {"compound": "COC(=O)c1sc2nc(C)cc(C)c2c1N", "Potency": "inactive"},
      {"compound": "CC1CCc2cc(F)ccc2N1C(=O)CN1C(=O)c2ccccc2C1=O", "note": "(stereo not drawn)", "Potency": "inconclusive: 7.38 µM [inhibitor, partial curve, poor fit]"},
      {"compound": "COc1ccc(/C=N/NC(=O)c2cccnc2)cc1CN1CCc2cc(OC)c(OC)cc2C1C", "note": "(stereo not drawn)", "Potency": "inconclusive: 10.4 µM [inhibitor, partial curve, poor fit]"},
      {"compound": "Cc1ccc(-c2nc(SCC(=O)Nc3cc(S(=O)(=O)N4CCCCC4)ccc3Cl)n[nH]2)cc1", "Potency": "inconclusive: 13.1 µM [inhibitor, partial curve, poor fit]"},
      {"compound": "Clc1ccc2nc(NC3=NCN(CCN4CCOCC4)CN3)nc(-c3ccccc3)c2c1", "Potency": "inconclusive: 11.7 µM [inhibitor, partial curve, poor fit]"},
      {"compound": "CNC(=S)N/N=C/c1ccco1", "Potency": "inconclusive: 2.94 µM [inhibitor, full curve]"},
      {"compound": "COc1cc(/C=C/C(=O)OCC(=O)c2c(N)n(C)c(=O)n(C)c2=O)ccc1OC(F)F", "Potency": "inactive"},
      {"compound": "COc1ccc(C2=NN(C(=O)c3ccco3)C(c3cc4ccccc4nc3Cl)C2)cc1", "note": "(stereo not drawn)", "Potency": "inactive"},
      {"compound": "C#CCOCCOCCOCCNc1nc(N2CCN(C(=O)[C@H](CCCCN)n3cc([C@@H](N)CC(C)C)nn3)CC2)nc(N2CCN(C(=O)[C@H](Cc3ccc(O)cc3)n3cc([C@@H](N)CC(C)C)nn3)CC2)n1", "Potency": "inactive"},
      {"compound": "COc1ccc2nc(Nc3nc(CSc4nnnn4-c4ccccc4)cc(=O)[nH]3)nc(C)c2c1", "Potency": "inconclusive: 13.1 µM [inhibitor, partial curve, poor fit]"},
      {"compound": "CCn1c(SCC(=O)NCc2ccco2)nnc1-c1ccncc1", "Potency": "inactive"},
      {"compound": "CCCCSc1nc2c(c(C(F)(F)F)c1C#N)CCC2", "Potency": "inconclusive: 11.7 µM [inhibitor, partial curve, poor fit]"},
      {"compound": "CC(=O)c1cccc(Oc2cc(NN3CCCCC3)c([N+](=O)[O-])cc2[N+](=O)[O-])c1", "Potency": "active: 11.7 µM"},
      {"compound": "O=C1CC(N2CCN(c3ccccc3)CC2)C(=O)N1c1ccc(Cl)cc1", "note": "(stereo not drawn)", "Potency": "inconclusive: 10.4 µM [inhibitor, single point]"},
      {"compound": "CCN(CC(=O)NCc1ccc(F)cc1)CC(=O)Nc1cc(S(=O)(=O)N(C)C)ccc1C", "Potency": "inconclusive: 9.28 µM [inhibitor, partial curve]"},
      {"compound": "COc1ccccc1CCC(=O)OCC(=O)Nc1cccc(S(=O)(=O)N2CCCCC2)c1", "Potency": "inconclusive: 5.86 µM [inhibitor, partial curve]"},
      {"compound": "Cc1ccc(NC(=S)NNC(=O)c2cn(C)nc2C)cc1", "Potency": "inconclusive: 13.1 µM [inhibitor, partial curve, poor fit]"},
      {"compound": "COc1ccc(OC)c2nc(-c3ccncc3)ccc12", "Potency": "inactive"},
      {"compound": "COc1cccc(CN(C)CC(=O)Nc2ccccc2C(=O)Nc2ccccc2)c1OC", "Potency": "inconclusive: 18.5 µM [inhibitor, partial curve, poor fit]"},
      {"compound": "Cc1cccc(C)c1NC(=S)NC1CCCCC1", "Potency": "active: 10.4 µM"},
      {"compound": "Cc1cc(C)c(S(=O)(=O)N2CCC(C(=O)NCc3ccco3)CC2)c(C)c1", "Potency": "inconclusive: 18.5 µM [inhibitor, single point]"},
      {"compound": "Cc1c(C(=O)NCCN2CCOC2=O)oc2c(F)cccc12", "Potency": "inconclusive: 13.1 µM [inhibitor, single point]"},
      {"compound": "Cc1cccc(NCc2ccc(O)c3ncccc23)c1", "Potency": "inconclusive: 1.31 µM [inhibitor, full curve]"},
      {"compound": "CCOC(=O)Cn1c(=O)oc2cc(S(=O)(=O)N3CCn4c3nc3ccccc34)ccc21", "Potency": "active: 14.7 µM"},
      {"compound": "Cc1sc2ncnc(SCC(=O)c3ccc(O)cc3O)c2c1C", "Potency": "inactive"},
      {"compound": "COc1ccc(NC(=O)CSc2nnnn2C)cc1S(=O)(=O)N1CCCCC1", "Potency": "inactive"},
      {"compound": "Cc1ccc(OC(=S)Nc2ccc(F)cc2)cc1", "Potency": "inactive"},
      {"compound": "COc1ccccc1NS(=O)(=O)c1cccc(C(=O)N/N=C(\\C)c2cccnc2)c1", "Potency": "inconclusive: 6.57 µM [inhibitor, partial curve, poor fit]"},
      {"compound": "COc1ccc2[nH]c3c(NCCN(C(C)C)C(C)C)ncnc3c2c1", "Potency": "active: 0.465 µM"},
      {"compound": "O=C(/C=C/Nc1ccc(S(=O)(=O)Nc2ncccn2)cc1)c1ccc(Cl)c(Cl)c1", "Potency": "inactive"},
      {"compound": "COc1ccc(/C=C/C(=O)Nc2cccc(C(C)=O)c2)cc1", "Potency": "inconclusive: 13.1 µM [inhibitor, single point]"},
      {"compound": "COc1ccc(C(CNc2ncnc3sc(C)c(C)c23)N(C)C)cc1", "note": "(stereo not drawn)", "Potency": "inconclusive: 0.0928 µM [inhibitor, full curve, poor fit]"},
      {"compound": "CC(=O)/C(=N\\Nc1ccc(Cl)cc1)Sc1nnc(-c2ccccc2)n1-c1ccccc1", "Potency": "active: 14.7 µM"},
      {"compound": "Cc1ccc(C(=O)OCC(=O)NCc2cccs2)c(C)c1", "Potency": "inactive"},
      {"compound": "CC(C)NCCOCCOc1ccc(Cl)cc1Br", "Potency": "inconclusive: 18.5 µM [inhibitor, single point]"},
      {"compound": "CC(=O)c1ccc(NC(=O)C(C)Sc2nnc(C3CCCCC3)o2)cc1", "note": "(stereo not drawn)", "Potency": "inconclusive: 11.7 µM [inhibitor, partial curve, poor fit]"},
      {"compound": "O=C(O)C1CCN(C(=O)COc2ccc3c(c2)oc(=O)c2ccccc23)CC1", "Potency": "inactive"},
      {"compound": "COc1ccc(N/C=C\\C(=O)c2ccc(Br)cc2)cc1OC", "Potency": "active: 1.85 µM"},
      {"compound": "Cc1c(NC(=O)OCCNC(=O)COc2ccc(Cl)cc2Cl)sc(=S)n1C", "Potency": "inconclusive: 1.65 µM [inhibitor, full curve, poor fit]"},
      {"compound": "Cc1ccccc1OCc1nc2c3c(ncn2n1)-c1ccccc1CC31CCCC1", "Potency": "active: 5.22 µM"},
      {"compound": "CC(/C=C/C1[C@H](C)C[C@H](O[C@@H]2O[C@H](CO)[C@@H](O)[C@H](O)[C@H]2O)CC1(C)C)O[C@H]1O[C@H](CO)[C@@H](O)[C@H](O)[C@H]1O", "note": "(stereo partly drawn)", "Potency": "inactive"},
      {"compound": "Cc1[nH]c2ccccc2c1SCC(=O)O", "Potency": "inactive"},
      {"compound": "O=C(NCCN1C(=O)C2C3C=CC(C3)C2C1=O)Nc1ccccc1O", "note": "(stereo not drawn)", "Potency": "active: 9.28 µM"},
      {"compound": "COc1ccc(CNC(=O)c2ccc3c(=O)n(CCCN4CCCC4=O)c(=S)[nH]c3c2)cc1", "Potency": "active: 4.15 µM"},
      {"compound": "CC(=O)Nc1ccc(-c2nnc(SCC(=O)Nc3ccc4c(c3)oc3ccccc34)n2C)cc1", "Potency": "inconclusive: 0.0329 µM [inhibitor, full curve, poor fit]"},
      {"compound": "Fc1ccc(-c2cc(-c3cccs3)cc(-c3ccccc3)n2)cc1", "Potency": "inconclusive: 18.5 µM [inhibitor, single point]"}
    ]}
  ]
}
